Experimental data published in PubChem BioAssay AID2662 (National Center for Advancing Translational Sciences (NCATS), 2010).
Out of some 290,000 compounds screened, about 110 (0.038%) were called active. Inconclusive means that the source gave no clear call. Such entries were picked first, then a sample of the others. Calls follow the shape of the dose curve; as a rule, active = well fitted inhibition curve with a large enough effect in the polarisation, with a control signal flat (not every such curve was filed as active); inconclusive = small, poorly fitted or top-dose-only effect, or effect the other way, or a change in a side signal; inactive = no such curve, though single readings can be large or run the other way; the % refers to the polarisation. Potencies of inconclusive entries are doubtful fits and often do not repeat. “Side channel” marks fits to a control or component signal instead of the main read-out.

Sequences of proteins named here, by UniProt entry; tags and fusion partners are left off.
UniProt Q03164, whole entry, looked up: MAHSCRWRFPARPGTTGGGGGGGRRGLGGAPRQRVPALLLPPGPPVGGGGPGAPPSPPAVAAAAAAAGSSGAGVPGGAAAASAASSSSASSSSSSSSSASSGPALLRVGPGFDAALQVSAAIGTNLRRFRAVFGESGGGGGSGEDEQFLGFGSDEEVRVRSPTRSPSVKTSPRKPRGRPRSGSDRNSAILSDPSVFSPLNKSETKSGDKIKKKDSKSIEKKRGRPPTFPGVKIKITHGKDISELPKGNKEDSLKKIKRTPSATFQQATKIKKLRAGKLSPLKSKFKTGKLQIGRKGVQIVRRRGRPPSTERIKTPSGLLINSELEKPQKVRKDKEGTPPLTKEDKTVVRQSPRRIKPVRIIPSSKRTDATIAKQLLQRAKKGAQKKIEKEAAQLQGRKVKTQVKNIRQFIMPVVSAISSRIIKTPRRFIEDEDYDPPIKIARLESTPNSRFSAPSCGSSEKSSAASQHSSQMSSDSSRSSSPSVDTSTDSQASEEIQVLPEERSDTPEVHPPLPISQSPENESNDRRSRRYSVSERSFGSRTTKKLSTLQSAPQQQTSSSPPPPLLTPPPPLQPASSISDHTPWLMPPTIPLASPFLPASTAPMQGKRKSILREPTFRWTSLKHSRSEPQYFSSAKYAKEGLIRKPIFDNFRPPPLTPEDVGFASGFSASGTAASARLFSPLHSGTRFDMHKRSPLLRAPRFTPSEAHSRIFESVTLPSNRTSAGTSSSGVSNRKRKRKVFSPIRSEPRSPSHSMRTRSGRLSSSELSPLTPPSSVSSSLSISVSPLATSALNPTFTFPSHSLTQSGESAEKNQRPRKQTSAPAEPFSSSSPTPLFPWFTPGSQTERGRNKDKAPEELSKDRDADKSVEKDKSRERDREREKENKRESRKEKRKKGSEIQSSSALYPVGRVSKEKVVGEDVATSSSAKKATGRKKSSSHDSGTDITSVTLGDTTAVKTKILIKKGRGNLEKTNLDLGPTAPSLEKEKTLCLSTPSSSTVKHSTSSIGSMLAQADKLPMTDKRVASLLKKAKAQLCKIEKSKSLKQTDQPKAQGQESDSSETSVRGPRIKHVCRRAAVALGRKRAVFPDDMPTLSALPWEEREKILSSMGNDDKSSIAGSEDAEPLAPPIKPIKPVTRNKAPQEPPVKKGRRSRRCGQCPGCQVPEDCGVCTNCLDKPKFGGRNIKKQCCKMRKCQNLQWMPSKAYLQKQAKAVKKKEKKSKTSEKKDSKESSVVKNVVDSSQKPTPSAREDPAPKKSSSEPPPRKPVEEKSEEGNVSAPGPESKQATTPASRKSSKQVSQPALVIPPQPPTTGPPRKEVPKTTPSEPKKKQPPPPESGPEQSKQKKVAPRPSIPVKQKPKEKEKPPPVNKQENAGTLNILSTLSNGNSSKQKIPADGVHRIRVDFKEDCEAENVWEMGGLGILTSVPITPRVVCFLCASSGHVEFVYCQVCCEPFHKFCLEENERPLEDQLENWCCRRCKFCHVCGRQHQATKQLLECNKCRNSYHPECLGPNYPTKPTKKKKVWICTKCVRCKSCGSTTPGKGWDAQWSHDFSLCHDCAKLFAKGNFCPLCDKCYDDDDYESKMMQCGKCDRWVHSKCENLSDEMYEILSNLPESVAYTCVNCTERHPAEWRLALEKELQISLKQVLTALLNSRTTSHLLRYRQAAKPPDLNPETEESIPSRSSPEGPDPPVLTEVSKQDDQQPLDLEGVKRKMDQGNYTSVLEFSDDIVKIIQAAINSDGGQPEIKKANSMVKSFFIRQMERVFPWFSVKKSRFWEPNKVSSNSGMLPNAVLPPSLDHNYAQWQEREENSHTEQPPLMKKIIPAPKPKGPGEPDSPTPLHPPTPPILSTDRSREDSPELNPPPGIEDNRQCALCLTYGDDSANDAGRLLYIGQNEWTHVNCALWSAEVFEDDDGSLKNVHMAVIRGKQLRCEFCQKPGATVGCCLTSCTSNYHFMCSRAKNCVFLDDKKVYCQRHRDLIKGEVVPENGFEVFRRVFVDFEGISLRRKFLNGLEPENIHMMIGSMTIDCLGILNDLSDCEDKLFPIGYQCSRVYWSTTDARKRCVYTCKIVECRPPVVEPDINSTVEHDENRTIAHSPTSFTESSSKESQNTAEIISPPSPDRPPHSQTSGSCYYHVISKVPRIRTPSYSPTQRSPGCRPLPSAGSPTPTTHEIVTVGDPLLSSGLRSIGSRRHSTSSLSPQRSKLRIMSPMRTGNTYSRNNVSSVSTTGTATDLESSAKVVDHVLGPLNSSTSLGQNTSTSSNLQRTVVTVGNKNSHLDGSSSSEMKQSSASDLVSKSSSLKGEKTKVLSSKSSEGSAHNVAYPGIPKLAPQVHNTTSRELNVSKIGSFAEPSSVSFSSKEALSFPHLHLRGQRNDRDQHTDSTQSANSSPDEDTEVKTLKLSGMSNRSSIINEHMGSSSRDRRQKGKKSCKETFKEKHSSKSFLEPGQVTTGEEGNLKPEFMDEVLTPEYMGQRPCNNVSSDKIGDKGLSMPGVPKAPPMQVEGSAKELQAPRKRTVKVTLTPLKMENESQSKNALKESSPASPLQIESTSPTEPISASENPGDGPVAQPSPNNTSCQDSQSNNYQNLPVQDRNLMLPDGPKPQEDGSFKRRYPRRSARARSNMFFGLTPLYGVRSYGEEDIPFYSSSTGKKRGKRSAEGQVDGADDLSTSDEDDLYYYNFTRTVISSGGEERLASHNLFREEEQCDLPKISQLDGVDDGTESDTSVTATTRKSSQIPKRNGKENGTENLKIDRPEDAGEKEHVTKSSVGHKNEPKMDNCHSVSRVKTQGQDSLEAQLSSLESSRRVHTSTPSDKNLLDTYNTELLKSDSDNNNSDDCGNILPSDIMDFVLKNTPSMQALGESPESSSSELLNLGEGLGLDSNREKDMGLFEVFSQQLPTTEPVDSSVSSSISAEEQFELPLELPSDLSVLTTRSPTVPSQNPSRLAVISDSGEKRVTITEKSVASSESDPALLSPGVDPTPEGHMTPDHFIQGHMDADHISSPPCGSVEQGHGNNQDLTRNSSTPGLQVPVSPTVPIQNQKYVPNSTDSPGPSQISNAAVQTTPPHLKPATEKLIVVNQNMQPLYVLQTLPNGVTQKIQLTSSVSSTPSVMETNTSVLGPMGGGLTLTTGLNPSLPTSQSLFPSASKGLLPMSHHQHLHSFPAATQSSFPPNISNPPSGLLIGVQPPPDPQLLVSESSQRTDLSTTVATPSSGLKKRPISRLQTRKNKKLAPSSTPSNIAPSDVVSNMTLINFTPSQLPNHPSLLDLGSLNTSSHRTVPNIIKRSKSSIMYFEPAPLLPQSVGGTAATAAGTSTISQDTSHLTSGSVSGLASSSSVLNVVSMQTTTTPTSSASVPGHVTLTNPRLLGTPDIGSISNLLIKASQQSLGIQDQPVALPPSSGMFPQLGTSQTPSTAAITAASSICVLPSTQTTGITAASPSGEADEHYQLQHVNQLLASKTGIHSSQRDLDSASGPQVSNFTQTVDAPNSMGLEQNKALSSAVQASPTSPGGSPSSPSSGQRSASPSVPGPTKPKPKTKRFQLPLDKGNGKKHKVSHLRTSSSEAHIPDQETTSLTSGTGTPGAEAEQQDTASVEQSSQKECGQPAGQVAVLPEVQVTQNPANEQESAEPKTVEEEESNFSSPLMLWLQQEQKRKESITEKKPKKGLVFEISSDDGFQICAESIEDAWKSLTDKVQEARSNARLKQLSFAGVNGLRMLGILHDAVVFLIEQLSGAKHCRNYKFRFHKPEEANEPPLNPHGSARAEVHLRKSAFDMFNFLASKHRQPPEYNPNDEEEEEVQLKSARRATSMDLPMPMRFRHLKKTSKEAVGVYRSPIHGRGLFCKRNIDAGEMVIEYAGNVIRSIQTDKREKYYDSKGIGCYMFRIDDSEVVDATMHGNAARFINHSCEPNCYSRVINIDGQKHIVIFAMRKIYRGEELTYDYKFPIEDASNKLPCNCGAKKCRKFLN

target: Histone-lysine N-methyltransferase 2A (Homo sapiens) (UniProt Q03164); experiment: qHTS Fluorescence Polarization Assay for Inhibitors of MLL CXXC domain - DNA interaction; settings: MLL-CXXC / FITC-HOXA9 DNA fluorescence polarization; series mostly up to 115 µM
Summary of the method: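 Fluorescence polarization: 7 uM MLL-CXXC (stock) preincubated 5 min with compounds, then 50 nM fluorescein-HOX-A9 DNA (stock) added; 30 min ambient. Buffer 50 mM Tris-HCl pH 7.5, 50 mM NaCl, 1 mM DTT, 0.05% BSA.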
Potency is read from the fitted curve at half-maximal effect.

SMILES	Potency
Cn1cccc1C(=O)N1CCc2ccccc2C1	inconclusive: 15.8 µM [fluorescent, side channel, single point]
CCCCC(=O)N1CCCC(c2nc3c(nnn3Cc3cc(C)ccc3C)c(=O)[nH]2)C1 (configuration not stated)	inactive
COc1ccc(/C=N/Nc2cc(C)nc3c(C)cccc23)cc1	inconclusive: 25.1 µM [quencher, side channel, partial curve]
N/C(=N\N=C\c1ccc(Cl)cc1)N/N=C/c1ccc(Cl)cc1	inactive
COC(=O)c1ccc(COC(=O)CCS(=O)(=O)c2ccc(C)cc2)cc1	inconclusive: 10 µM [fluorescent, side channel, single point]
CCOC(=O)c1c(NC(=O)CN2CCOCC2)sc2c1CCCC2	inactive
COc1ccccc1-c1nnc(SC)n1C	inconclusive: 6.31 µM [fluorescent, side channel, full curve, poor fit]
Nc1c(C(=O)Nc2ccc(S(=O)(=O)N3CCCC3)cc2)sc2nc3cc4c(cc3cc12)CCC4	inactive
COCCNC(=O)C1CC2Cn3c(nc4cc5ccccc5cc43)C2N1C (configuration not stated)	inconclusive: 1.41 µM [fluorescent, side channel, full curve, poor fit]
NC(=O)c1cc[n+](CC2=C(C(=O)O)N3C(=O)[C@@H](NC(=O)[C@@H](c4ccccc4)S(=O)(=O)[O-])[C@H]3SC2)cc1	inconclusive: 28.2 µM [inhibitor, partial curve]
CC1CCN(C(=O)COC(=O)CCCN2C(=O)c3cccc4cccc(c34)C2=O)CC1	inactive
CCOC(=O)C1=C(COC(=O)c2ccc(Br)o2)NC(=O)NC1C (configuration not stated)	inconclusive: 12.6 µM [fluorescent, side channel, single point]
O=C(Oc1coc(CSc2nnc(NC(=O)C3CC3)s2)cc1=O)c1ccccc1	inconclusive: 10 µM [fluorescent, side channel, single point]
O=C(/C=C/c1ccc(Cl)cc1)Nn1c(-c2cccs2)nc2ccccc2c1=O	inconclusive: 10 µM [inhibitor, single point]
COc1cccc(NC(=O)CSc2nn3c(=O)c(C)nnc3s2)c1	inconclusive: 14.1 µM [fluorescent, side channel, single point]
COc1ccc(C2NN=C(c3c[nH]c4ccccc34)C2O)cc1 (configuration not stated)	inconclusive: 8.91 µM [fluorescent, side channel, partial curve]
COc1ccccc1/C=C(/C(=O)OCC(N)=O)c1ccccc1	inconclusive: 39.8 µM [fluorescent, side channel, partial curve]

An excerpt of these results, as labelled records:
Nc1c(C(=O)Nc2ccc(S(=O)(=O)N3CCCC3)cc2)sc2nc3cc4c(cc3cc12)CCC4
  Potency: inactive
CC1CCN(C(=O)COC(=O)CCCN2C(=O)c3cccc4cccc(c34)C2=O)CC1
  Potency: inactive
